Structures can show the parent of a compound that is named as a salt. For some assays here: For at least one compound, name, drawing or mass did not settle the structure. Some entries repeat one wording, which the source may state once for all of them. Some entries share one result that the patent states for a list of compounds.
How the values were obtained:
CLL cells [1] = test: Cell viability by annexin V/PI flow cytometry in CLL cells; conditions: annexin/PI negative, CQ 0.5 μM, flavopiridol 4 hours then washed, CQ continuous 24 hours
Method: Percent of live cells was determined by staining with annexin V-fluorescein isothiocyanate and propidium iodide (PI). After exposure to agents, cells were washed with PBS and stained in 1× binding buffer (BD Biosciences, Franklin Lakes, N.J.). Cell viability was assessed by flow cytometry using a Beckman-Coulter Cytomics FC500 cytometer. Data were analyzed with the CXP Cytometer software package (Beckman-Coulter). A total of 10,000 cells were counted for each sample. The cells treated with flavopiridol were washed after 4 hours with PBS and re-suspended in regular growth medium (RPMI 1640) supplemented with 10% human serum and antibiotics for the remainder of the incubation time. […] For all the other conditions, cells were incubated with the respective drugs for 24 hours continuously.
CLL cells were suspended in buffer V (Amaxa kit, Lonza, Allendale, N.J.) and nucleofection was performed using program U016 (5 μg siRNA and 1×10^7 cells per cuvette). Scrambled siRNA and siRNAs to ATG5, ATG7 and ASK1 were purchased from Sigma-Aldrich. Cells were immediately suspended in warm, complete media supplemented with 10% human serum, and RNA was extracted after 36 hours. For CDK1 and CDK5, siRNAs were purchased from Applied Biosystems (Carlsbad, Calif.). Transfections were done using 5 nM siRNA per cuvette, and RNA was harvested at 48 hours.

CLL cells [2] = test: LC3 confocal immunofluorescence (autophagosome formation) in CLL cells in vitro; assay type: cell-based, human; conditions: CLL patient cells, 4 hours; rapamycin 5 μM, thapsigargin 1 μM, F-ara-A 5 μM, chlorambucil 20 μM, CAL-101 1 μM, rituximab 10 μg/ml, flavopiridol 2 μM, CQ 0.5 μM
Method: After 4 hours exposure to agents, cells were washed in phosphate-buffered saline (PBS) and made adherent on a microscope slide by centrifugation in a Cytospin3 (Shandon) centrifuge. Immediately after cytospin, cells were fixed in cold acetone. […] Nuclei were stained blue with DAPI (Vector Laboratories, Burlingame, Calif.). Images were taken using a 60× objective and 4× digital zoom with Olympus Fluoview 1000 Laser Scanning Confocal microscope at the Ohio State University Campus Microscopy and Imaging Facility. ATF6 antibody was purchased from LifeSpan Biosciences (Seattle, Wash.) and Nrf2 was from Santa Cruz Biotechnology (Santa Cruz, Calif.). Nuclei were evaluated for ATF6 and Nrf2 using confocal microscopy to collect Z stacks, approximately 45 slices per cell, 0.2 μm each.
LC3 intensity and number of dots per cell were both assessed in the fluorescence images. Integrated intensity was measured using Metamorph v.7.0. To calculate the number of “dots” (local extreme point in pixel-intensity profile at which a number of high-intensity pixels form a cluster), a Gaussian filter was first applied to reduce noise. Cells were enumerated electronically by an improved watershed-based algorithm. To quantify co-localization, two binary nuclei images—red (R) and green (G)—are obtained. The correlation value is calculated as the number of white pixels of (R&G) divided by the number of pixels of (RIG), where (R&G) is the intersection of R and G, and (RIG) is the union of R and G. The program used for cell counts and measurement of correlation index is based on MatLab software (Natick, Mass.) and it was developed by members of Department of Biomedical Informatics, The Ohio State University.

XBP1, IRE1, GRP78 = test: Real-time RT-PCR of ER stress genes in CLL cells in vitro; assay type: cell-based, human; conditions: CLL cells n=5; flavopiridol 2 μM, thapsigargin 1 μM, tunicamycin 3 μg/ml; CD52 control gene
Method: RNA was extracted using TRIzol reagent (Invitrogen, Carlsbad, Calif.) and purified using QIAGEN RNeasy columns (Qiagen, Valencia, Calif.). cDNA was prepared with SuperScript First-Strand Synthesis System (Invitrogen). Real-time PCR was performed using primers purchased from Applied Biosystems. Detection was performed using an ABI Prism 7700 sequence detection system (Applied Biosystems). Average relative expression (treatment compared with vehicle) was normalized to the internal control gene CD52. Primers to detect spliced XBP1 were designed using Primer 3 software and purchased from IDT. Samples were analyzed on 10% acrylamide gels.

697 cells = test: ChIP assay of ATF6 at GRP78 promoter in 697 cells; assay type: cell-based; conditions: relative to IgG control
Method: In brief, cells were treated with 37% formaldehyde to ensure crosslinking of proteins to DNA. Cells were lysed and sonicated to shear the chromatin to fragments of approximately 500 bp. Sheared chromatin was incubated with ATF6 antibody (LifeSpan Biosciences, Seattle, Wash.), followed by precipitation, washing and reversing of the crosslinks Purified DNA was then analyzed by real-time quantitative PCR using primers to the GRP78 promoter region. Primers were designed using Primer 3 software and purchased from IDT (Coralville, Iowa).

caspase 8 = test: Caspase 8 activity (AFC assay) in CLL cells treated in vitro; assay type: cell-based, human; conditions: CLL cells n=5; flavopiridol 2 μM (4 hours, washed), thapsigargin 1 μM, tunicamycin 3 μg/ml; 24 hours
Method: (§1) The presence of active caspase enzymes was determined by the AFC assay. Briefly, lysates containing approximately 3×10^6 cells were incubated with 50 μM LEVD-AFC (caspase 4 substrate) or LETD-AFC (caspase 8 substrate) from MP Biomedicals (Solon, Ohio) in 2× cytobuffer from BioVision (Exton, Pa.) containing 10 mM dithiothretiol (DTT). Caspase 4 activity was measured one hour after addition of substrate and caspase 8 activity was measured 30 minutes after addition of substrate. Release of free AFC was measured with a Beckman-Coulter DTX 880 multimode detector (Filters: excitation, 405/10 nm; emission, 535/25 nm). Caspase 4 inhibitor Z-YVAD-FMK was purchased from R&D Systems.

caspase 4 = test: Caspase 4 activity (AFC assay) in CLL cells treated in vitro; assay type: cell-based, human; conditions: CLL cells n=5; flavopiridol 2 μM (4 hours, washed), thapsigargin 1 μM, tunicamycin 3 μg/ml; 24 hours
Method: as §1

CC[C@H](Nc1ncnc2[nH]cnc12)c1nc2cccc(F)c2c(=O)n1-c1ccccc1 [CAL-101]
effect of chloroquine addition on cell death caused by the agent (CLL cells [1]): neither enhanced nor diminished | LC3 aggregation / LC3 fluorescence (autophagosome formation) versus vehicle (CLL cells [2]): induction of autophagy

Nc1nc(F)nc2c1ncn2[C@@H]1O[C@H](CO)[C@@H](O)[C@@H]1O [F-ara-A, 9-β-D-arabinofuranosyl-2-fluoroadenine 5′-phosphate]
expression of ER stress genes XBP1, IRE1 and GRP78 (XBP1, IRE1, GRP78): not noted | binding of GRP78 promoter region by ATF6 (697 cells): not noted | LC3 aggregation / LC3 fluorescence (autophagosome formation) versus vehicle (CLL cells [2]): induction of autophagy

CN1CC[C@H](c2c(O)cc(O)c3c(=O)cc(-c4ccccc4Cl)oc23)[C@H](O)C1 [flavopiridol, (cis-5,7-dihydroxy-2-(2-chlorophenyl)-8-[4-(3-hydroxy-1-methyl)-piperidin-yl]-1-benzopyran-4-one)hydrochloride]
increase of caspase 8 activity compared to vehicle or F-ara-A (caspase 8): 5- to 10 fold | increase of caspase 4 activity compared to vehicle or F-ara-A (caspase 4): 5- to 10 fold

CO[C@H]1C[C@@H]2CC[C@@H](C)[C@@](O)(O2)C(=O)C(=O)N2CCCC[C@H]2C(=O)O[C@H]([C@H](C)C[C@@H]2CC[C@@H](O)[C@H](OC)C2)CC(=O)[C@H](C)/C=C(\C)[C@@H](O)[C@@H](OC)C(=O)[C@H](C)C[C@H](C)/C=C/C=C/C=C/1C [rapamycin]
effect of chloroquine addition on cell death caused by the agent (CLL cells [1]): neither enhanced nor diminished | LC3 aggregation / LC3 fluorescence (autophagosome formation) versus vehicle (CLL cells [2]): increase in LC3 aggregation

C/C=C(/C)C(=O)O[C@H]1C(C)=C2[C@H]([C@@H]1OC(=O)CCCCCCC)[C@@](C)(OC(C)=O)C[C@H](OC(=O)CCC)[C@@]1(O)[C@H]2OC(=O)[C@@]1(C)O [thapsigargin]
increase of caspase 8 activity compared to vehicle or F-ara-A (caspase 8): 5- to 10 fold | increase of caspase 4 activity compared to vehicle or F-ara-A (caspase 4): 5- to 10 fold
